This is an account of results in patent US20230340607A1, “COMPOSITIONS AND METHODS FOR DETECTING GENE FUSIONS OF RAD51AP1 AND DYRK4 AND FOR DIAGNOSING AND TREATING CANCER” (UNIVERSITY OF PITTSBURGH-OF THE COMMONWEALTH SYSTEM OF …, priority 2020, published 2023).

Results are given in words; binding and its absence hold for the method and conditions named. In cells and extracts the contact can be indirect. Where a sequence is shown, tags or fusion partners need not be part of it.

In this test the target is MEK. Nature of the test: co-immunoprecipitation with anti-RAD51AP1 antibody from T47D cell lysate, immunoblot. (In general: A western blot detects proteins with antibodies after separation by electrophoresis.)

B1: RAD51AP1-DYRK4 fusion protein (E9-E2 variant) (protein)
chain: MVRPVRHKKPVNYSQFDHSDSDDDFVSATVPLNKKSRTAPKELKQDKPKPNLNNLRKEEIPVQEKTPKKRMALDDKLYQRDLEVALALSVKELPTVTTNVQNSQDKSIEKHGSSKIETMNKSPHISNCSVASDYLDLDKITVEDDVGGVQGKRKAASKAAAQQRKILLEGSDGDSANDTEPDFAPGEDSEDDSDFCESEDNDEDFSMRKSKVKEIKKKEVKVKSPVEKKEKKSKSKCNALVTSVDSAPAAVKSESQSLPKKVSLSSDTTRKPLEIRSPSAESKKPKWVPPGLKWMLKSQGNVI
As to B1, the binding result is listed as “no binding”.
